The values below come from the supplement of paper PMC4604168 (melanoma cell lines).

The list shows a part of the results. Many values rest on one well or one pass, so single values are uncertain.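 The apoptosis fraction was the count of cleaved-PARP antibody-stained nuclei relative to all DNA-stained nuclei, imaged in 1,536-well plates. Screening doses were set so most cells survived, and baseline and induced cleaved-PARP levels vary greatly across cell lines.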

For one experiment, the system named is WM3619. The experiment in a line: cleaved PARP positive nuclei fraction relative to DMSO control; melanoma cells; higher = more apoptosis. Particulars: library dose: low library concentration; 72 h.
Consider `CC(C)C[C@H](NC(=O)[C@H](Cc1ccccc1)NC(=O)c1cnccn1)B(O)O` [Bortezomib] + COc1cc2ncnc(Nc3ccc(Oc4ccccc4)cc3)c2cc1OC [SrcI1] (first compound 0.001 µM, partner dose 2 µM), for which the “cleaved PARP positive nuclei fraction” value stood at 1480%.

For the compound `CC(C)C[C@H](NC(=O)[C@H](Cc1ccccc1)NC(=O)c1cnccn1)B(O)O` [Bortezomib] + C[C@@H]1CCN(C(=O)CC#N)C[C@@H]1N(C)c1ncnc2[nH]ccc12 [CP690550] (first compound 0.001 µM, partner dose 1 µM), the “cleaved PARP positive nuclei fraction” value is 388%.

In the case of `CNC(=O)c1cc(Oc2ccc(NC(=O)Nc3ccc(Cl)c(C(F)(F)F)c3)cc2)ccn1` [sorafenib] + c1cc(-c2cnn3cc(-c4ccc(OCCN5CCCCC5)cc4)cnc23)ccn1 [Dorsomorphin] (first compound 0.4 µM, partner dose 0.4 µM), the “cleaved PARP positive nuclei fraction” value came out at 71.1%.

For the compound `O=C(O)c1ccc2c(c1)nc(Nc1cccc(Cl)c1)c1ccncc12` + O=C(Nc1cccc(Cl)c1)Nc1ncc(CCNc2ncnc3ccsc23)s1 [SNS314] (first compound 0.4 µM, partner dose 0.0008 µM), the “cleaved PARP positive nuclei fraction” value was found to be 190%.

For `CCCS(=O)(=O)Nc1ccc(F)c(C(=O)c2c[nH]c3ncc(Cl)cc23)c1F` + CCc1ccc(CCOc2ccc(CC3SC(=O)NC3=O)cc2)nc1 [pioglitazone] (first compound 0.08 µM, partner dose 2 µM), the “cleaved PARP positive nuclei fraction” value was found to be 153%.

With `O=C(O)c1ccc2c(c1)nc(Nc1cccc(Cl)c1)c1ccncc12` + CC(C)(C)c1cnc(CSc2cnc(NC(=O)C3CCNCC3)s2)o1 [SNS-032] (first compound 0.4 µM, partner dose 0.01 µM), the “cleaved PARP positive nuclei fraction” value was determined as 108%.

For the compound `CN1CCN(c2ccc3nc(-c4c(N)c5c(F)cccc5[nH]c4=O)[nH]c3c2)CC1` [Dovitinib] + NC(=O)Nc1cc(-c2cccc(F)c2)sc1C(=O)N[C@H]1CCCNC1 [AZD7762] (first compound 0.1 µM, partner dose 0.02 µM), the “cleaved PARP positive nuclei fraction” value was found to be 124%.

For `O=C(O)[C@@H]1[O][Sb](=[O])([O][Sb]2(=[O])[O][C@H]([C@H](O)CO)[C@H](O)[C@H](C(=O)O)[O]2)[O][C@H]([C@H](O)CO)[C@@H]1O` (stereo partly specified) [stibogluconate] + OCCn1cc(-c2cnc3nnn(Cc4ccc5ncccc5c4)c3n2)cn1 [PF04217903] (first compound 2 µM, partner dose 1 µM), the “cleaved PARP positive nuclei fraction” value amounted to 105%.

As to `CS(=O)(=O)CCNCc1ccc(-c2ccc3ncnc(Nc4ccc(OCc5cccc(F)c5)c(Cl)c4)c3c2)o1` [lapatinib] + COc1ccc(COc2ccc(Cc3cnc(N)nc3N)cc2OC)cc1 [GW2580] (first compound 0.8 µM, partner dose 1 µM), the “cleaved PARP positive nuclei fraction” value was determined as 81.6%.

The next experiment relates to WM451Lu. The experiment is described as above. Particulars: library dose: low library concentration; 72 h.
For the compound `C=C(c1ccc(C(=O)O)cc1)c1cc2c(cc1C)C(C)(C)CCC2(C)C` [Bexarotene] + CC(C)(C)c1cnc(CSc2cnc(NC(=O)C3CCNCC3)s2)o1 [SNS-032] (first compound 2 µM, partner dose 0.01 µM), the “cleaved PARP positive nuclei fraction” value was found to be 55.5%.

Turning to `Cc1cc(Nc2cc(N3CCN(C)CC3)nc(/C=C/c3ccccc3)n2)n[nH]1` + COc1cc(N2CCC(N3CCN(C)CC3)CC2)ccc1Nc1ncc(Cl)c(Nc2ccccc2S(=O)(=O)C(C)C)n1 [NVP-TAE684] (first compound 0.04 µM, partner dose 0.08 µM), the “cleaved PARP positive nuclei fraction” value turned out to be 160%.

With `O=C(O)c1ccc2c(c1)nc(Nc1cccc(Cl)c1)c1ccncc12` + Oc1nc(-c2ccc(C(F)(F)F)cc2)nc2c1CSCC2 [XAV939] (first compound 0.4 µM, partner dose 2 µM), the “cleaved PARP positive nuclei fraction” value was determined as 64.6%.

Turning to `Nc1ccn([C@@H]2O[C@H](CO)[C@@H](O)C2(F)F)c(=O)n1` [gemcitabine] + COC(=O)c1sccc1S(=O)(=O)Nc1ccc(Nc2ccccc2)cc1OC [GSK0660] (first compound 0.0004 µM, partner dose 1 µM), the “cleaved PARP positive nuclei fraction” value came out at 50.4%.

In the case of `CNC(=O)c1cc(Oc2ccc(NC(=O)Nc3ccc(Cl)c(C(F)(F)F)c3)cc2)ccn1` [sorafenib] + CC(C)(C)c1cnc(CSc2cnc(NC(=O)C3CCNCC3)s2)o1 [SNS-032] (first compound 0.4 µM, partner dose 0.01 µM), the “cleaved PARP positive nuclei fraction” value was determined as 111%.

For `Nc1ccn([C@@H]2O[C@H](CO)[C@@H](O)C2(F)F)c(=O)n1` [gemcitabine] + OCCn1cc(-c2cnc3nnn(Cc4ccc5ncccc5c4)c3n2)cn1 [PF04217903] (first compound 0.0004 µM, partner dose 1 µM), the “cleaved PARP positive nuclei fraction” value was 142%.

For the compound `C=C(c1ccc(C(=O)O)cc1)c1cc2c(cc1C)C(C)(C)CCC2(C)C` [Bexarotene] + Cc1ccc(NC(=O)c2cccc(N(C)C)c2)cc1NC(=O)c1ccc(O)cc1 [ZM336372] (first compound 2 µM, partner dose 2 µM), the “cleaved PARP positive nuclei fraction” value was determined as 120%.

Regarding `Nc1nc(F)nc2c1ncn2[C@@H]1O[C@H](CO)[C@@H](O)[C@@H]1O` [fludarabine] + C=CCn1c(=O)c2cnc(Nc3ccc(N4CCN(C)CC4)cc3)nc2n1-c1cccc(C(C)(C)O)n1 [MK1775] (first compound 0.2 µM, partner dose 0.02 µM), the “cleaved PARP positive nuclei fraction” value turned out to be 252%.

`Cc1cc(Nc2cc(N3CCN(C)CC3)nc(/C=C/c3ccccc3)n2)n[nH]1` + Cn1cc(/C=C2\C(=O)Nc3cccnc32)c2ccccc21 [GW441756] (first compound 0.04 µM, partner dose 0.4 µM): the “cleaved PARP positive nuclei fraction” value worked out at 69.6%.

Turning to `CC(C)C[C@H](NC(=O)[C@H](Cc1ccccc1)NC(=O)c1cnccn1)B(O)O` [Bortezomib] + c1cc(-c2cnn3cc(-c4ccc(OCCN5CCCCC5)cc4)cnc23)ccn1 [Dorsomorphin] (first compound 0.001 µM, partner dose 0.4 µM), the “cleaved PARP positive nuclei fraction” value worked out at 331%.

Take `Nc1ncn([C@H]2C[C@H](O)[C@@H](CO)O2)c(=O)n1` [decitabine] + Cc1cc([N+](=O)[O-])ccc1NS(=O)(=O)c1cc(Cl)ccc1Cl [FH535] (first compound 0.1 µM, partner dose 1 µM): the “cleaved PARP positive nuclei fraction” value is 169%.

Take `Nc1ncn([C@H]2C[C@H](O)[C@@H](CO)O2)c(=O)n1` [decitabine] + O=C(Nc1cccc(Cl)c1)Nc1ncc(CCNc2ncnc3ccsc23)s1 [SNS314] (first compound 0.1 µM, partner dose 0.0008 µM): the “cleaved PARP positive nuclei fraction” value stood at 36.9%.

Turning to `CS(=O)(=O)CCNCc1ccc(-c2ccc3ncnc(Nc4ccc(OCc5cccc(F)c5)c(Cl)c4)c3c2)o1` [lapatinib] + COc1ccc2c(c1)CCC1C2CCC2(C)C(NCCCCCCN3C(=O)C=CC3=O)CCC12 [U73122] (first compound 0.8 µM, partner dose 0.4 µM), the “cleaved PARP positive nuclei fraction” value worked out at 63.3%.

For `Cc1cc(Nc2cc(N3CCN(C)CC3)nc(/C=C/c3ccccc3)n2)n[nH]1` + CCCCCCCCCCCC1=C(O)C(=O)C=C(O)C1=O [Embelin] (first compound 0.04 µM, partner dose 1.2 µM), the “cleaved PARP positive nuclei fraction” value turned out to be 74%.

As to `C[C@@H](Oc1cc(-c2cnn(C3CCNCC3)c2)cnc1N)c1c(Cl)ccc(F)c1Cl` [Crizotinib] + Cc1cc([N+](=O)[O-])ccc1NS(=O)(=O)c1cc(Cl)ccc1Cl [FH535] (first compound 0.2 µM, partner dose 1 µM), the “cleaved PARP positive nuclei fraction” value worked out at 73.2%.

Take `Nc1ccn([C@@H]2O[C@H](CO)[C@@H](O)C2(F)F)c(=O)n1` [gemcitabine] + O=C(Nc1cccc(Cl)c1)Nc1ncc(CCNc2ncnc3ccsc23)s1 [SNS314] (first compound 0.0004 µM, partner dose 0.0008 µM): the “cleaved PARP positive nuclei fraction” value amounted to 58.9%.

With `O=C(O)[C@@H]1[O][Sb](=[O])([O][Sb]2(=[O])[O][C@H]([C@H](O)CO)[C@H](O)[C@H](C(=O)O)[O]2)[O][C@H]([C@H](O)CO)[C@@H]1O` (stereo partly specified) [stibogluconate] + CC(C)CCN1c2nc(Nc3cc(F)c(O)c(F)c3)ncc2N(C)C(=O)C1C [BID1870] (first compound 2 µM, partner dose 0.2 µM), the “cleaved PARP positive nuclei fraction” value was determined as 75.4%.

Take `C=C(c1ccc(C(=O)O)cc1)c1cc2c(cc1C)C(C)(C)CCC2(C)C` [Bexarotene] + COc1ccc2c(c1)CCC1C2CCC2(C)C(NCCCCCCN3C(=O)C=CC3=O)CCC12 [U73122] (first compound 2 µM, partner dose 0.4 µM): the “cleaved PARP positive nuclei fraction” value was determined as 44.2%.

For `C=C(c1ccc(C(=O)O)cc1)c1cc2c(cc1C)C(C)(C)CCC2(C)C` [Bexarotene] + Oc1nc(-c2ccc(C(F)(F)F)cc2)nc2c1CSCC2 [XAV939] (first compound 2 µM, partner dose 2 µM), the “cleaved PARP positive nuclei fraction” value worked out at 70.7%.

In the case of `CS(=O)(=O)CCNCc1ccc(-c2ccc3ncnc(Nc4ccc(OCc5cccc(F)c5)c(Cl)c4)c3c2)o1` [lapatinib] + NC(=O)Nc1cc(-c2cccc(F)c2)sc1C(=O)N[C@H]1CCCNC1 [AZD7762] (first compound 0.8 µM, partner dose 0.02 µM), the “cleaved PARP positive nuclei fraction” value was 38.6%.

On to `O=C(O)[C@@H]1[O][Sb](=[O])([O][Sb]2(=[O])[O][C@H]([C@H](O)CO)[C@H](O)[C@H](C(=O)O)[O]2)[O][C@H]([C@H](O)CO)[C@@H]1O` (stereo partly specified) [stibogluconate] + CN(NC(=O)CC(=O)NN(C)C(=S)c1ccccc1)C(=S)c1ccccc1 [STA4783] (first compound 2 µM, partner dose 0.006 µM), for which the “cleaved PARP positive nuclei fraction” value is 21.5%.

As for `CCCS(=O)(=O)Nc1ccc(F)c(C(=O)c2c[nH]c3ncc(Cl)cc23)c1F` + COc1ccc(COc2ccc(Cc3cnc(N)nc3N)cc2OC)cc1 [GW2580] (first compound 0.08 µM, partner dose 1 µM), the “cleaved PARP positive nuclei fraction” value was 77.3%.
